Values quoted from earlier work in PMC4788153, “Impact of Cytochrome P450 2D6 Function on the Chiral Blood Plasma Pharmacokinetics of 3,4-Methylenedioxymethamphetamine (MDMA) and Its Phase I and II Metabolites in Humans” (PLoS ONE, 2016).

Details: cited from earlier work

SMILES: CNC(C)Cc1ccc2c(c1)OCO2 (stereo not drawn) [MDMA, 3,4-methylenedioxymethamphetamine]
- duration of acute effects (ref [3]): 4 h
- mean duration of subjective and cardiovascular effects (ref [76, 77, 84, 91, 101]): 3.5 h
- time within which subjective and cardiovascular effects completely subside (ref [76, 77, 84, 91, 101]): 5 to 6 h
